Drawing on PMC7291019, this text covers binding for one substance.

Chains of the proteins cited; added tags and fusions are not shown.
UniProt P26678: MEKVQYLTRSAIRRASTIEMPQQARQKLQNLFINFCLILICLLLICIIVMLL

The assay deals with RFP-SERCA2a (acceptor-labelled human cardiac sarco/endoplasmic reticulum calcium ATPase, as it stands in the RFP-SERCA2a-LINKER-GFP-PLB fusion biosensor) (human) (UniProt P16615). Description: FRET or BRET; fluorescence-lifetime (FLT) detected FRET in living HEK293-6E cells in PBS at room temperature, 1536-well plate reader; GFP donor on PLB, RFP acceptor on SERCA2a, both tethered on one chain by a 47-residue linker; donor-only cell line as reference; with DMSO, thapsigargin or Ro …. (In general: Bioluminescence resonance energy transfer reports proximity on the nanometre scale.)

These are yes or no findings as the source states them, for the method shown. Binding seen in cells or lysates may run through a third protein. Some entries that bind do so weakly or less than the wild type.

As for “GFP-PLB (donor-labelled human cardiac phospholamban, as it stands in the RFP-SERCA2a-LINKER-GFP-PLB fusion biosensor) (from UniProt P26678 1-52)”, the binding entry is recorded as “binds”.
